# Source: PubChem BioAssay AID662 (National Center for Advancing Translational Sciences (NCATS), 2007)
# Several values for one entry are separate records, joined by “and”; a condition that tells them apart may be missing. Identical values can stand only once. The list shows a part of the results. The main result of the screen is listed elsewhere. These columns were measured beside it and carry no call. Compounds called inactive in the main read-out are mostly missing here. Words in brackets tell the shape of the fitted curve; partial curves, single points and poor fits give uncertain potencies.
# Assay: Cell signaling CRE-BLA (Fsk stim)
# Details: CHO CRE-bla reporter (cAMP response element driving beta-lactamase), forskolin EC10, beta-lactamase ratio; measured here: 460 nm blue channel
# In short: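 Modulation of forskolin-driven signalling is measured in CHO cells carrying a CRE-controlled beta-lactamase reporter. Cells are stimulated with EC10 NKH 477 in the presence of titrated compound for 3 h at 37 °C, then loaded with CCF4 for 2 h at room temperature.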
row,SMILES,AC50
1,COCCn1c(=O)c(-c2cc(F)cc(F)c2)nc2cnc(Oc3ccc(OC)cc3)nc21,"12.6 µM [rising, single point]"
2,CCOC(=O)C1CCN(S(=O)(=O)c2cccc(-c3cn4cccc(C)c4n3)c2)CC1,"25.1 µM [rising, single point]"
3,COc1ccc(OC)c(NC(=O)c2cn(C)c(=O)c3cc(OC)c(OC)cc23)c1,"6.31 µM [rising, partial curve]"
4,FC(F)(F)c1cc(-c2ccc3c(c2)OCO3)nc(NCc2ccco2)n1,"12.6 µM [falling, single point]"
5,Cc1nc2cnc(Nc3ccccc3)nc2n(C[C@H]2CCCO2)c1=O,"10 µM [rising, partial curve]"
6,CCn1c(SCC(=O)c2ccc(NS(=O)(=O)c3ccccc3)cc2)nnc1-c1cccs1,"7.94 µM [falling, partial curve]"
7,O=c1c(-c2ccc(F)cc2)nc2cncnc2n1-c1ccccc1,"12.6 µM [rising, partial curve]"
8,Cc1nn(-c2ccccc2)c2c1C1(C(=O)N(C(C)C)c3ccccc31)C(C#N)=C(N)O2 (stereo not drawn),"10 µM [falling, partial curve]"
9,O=C(Nc1ccc(Cl)cc1)C1CC2CCCC(C1)C2=O (stereo not drawn),"5.01 µM [rising, partial curve]"
10,C=CCc1ccc(OCC(O)CN2CCCCC2C)c(OC)c1 (stereo not drawn),"5.01 µM [falling, single point]"
11,CCC1CCCCN1CCCNC(=O)c1ccc(CS(=O)(=O)Cc2ccccc2F)o1 (stereo not drawn),"0.1 µM [falling, full curve, poor fit]"
12,CCn1c(SCC(=O)Nc2nc(-c3ccccc3)cs2)nnc1-c1ccccc1O,"12.6 µM [falling, partial curve]"
13,C/C(C[n+]1ccccc1)=N\N=C(N)N,"0.01 µM [falling, full curve, poor fit]"
14,COC(=O)C1=C(C)NC(C)=C(C(=O)OCCSc2ccccc2)[C@@H]1C,"12.6 µM [rising, single point]"
15,CCCc1ccc(OCc2nc(-c3ccc(NC(=O)c4ccco4)cc3)no2)cc1,"25.1 µM [rising, single point]"
16,COc1ccc2[nH]cc(CCNc3ccnc(-c4c(C)noc4C)n3)c2c1,"15.8 µM [rising, partial curve]"
17,CCn1c(COc2cccc(OC)c2)nnc1SCC(=O)Nc1cc(OC)ccc1OC,"5.01 µM [falling, single point]"
18,COc1cc2nc(-c3cccs3)oc(=O)c2cc1OC,"3.16 µM [rising, single point]"
19,O=C(Nc1ccc2c(c1)OCO2)[C@@H]1[C@@H]2C(=O)N(C3CCCCC3)C(=O)[C@@H]2C2c3ccccc3C=CN21 (stereo partly drawn),"10 µM [falling, partial curve]"
20,C=CCn1c(SCC(=O)Nc2cc(C)cc(C)c2)nnc1-c1cnccn1,"2.51 µM [rising, partial curve]"
21,CCN(CC)S(=O)(=O)c1cccc(-c2nnc(SCCCC(=O)c3ccccc3)o2)c1,"12.6 µM [falling, single point]"
22,Cc1c(=O)n(OCc2ccccc2F)c2ccccc2[n+]1[O-],"0.631 µM [rising, partial curve, poor fit]"
23,c1csc(-c2nc3nc4ccccc4nc3n2Cc2ccc3c(c2)OCO3)c1,"12.6 µM [rising, partial curve]"

row,SMILES,AC50
1,COc1nc(C)ccc1-c1noc(-c2ccco2)n1,"12.6 µM [rising, partial curve]"
2,CCN(CC(=O)Nc1ccc2c(c1)CCC2)Cc1nc2ccccc2c(=O)[nH]1,"10 µM [rising, partial curve]"
3,Nc1nnc(SCc2ccc(F)cc2Cl)s1,"7.94 µM [falling, partial curve]"
4,COc1ccc(Oc2ncc3nc(-c4ccc(Cl)cc4)c(=O)n(CCC#N)c3n2)cc1,"10 µM [rising, partial curve]"
5,NC(=O)c1ccccc1NC(=O)CN1CCOCC1,"1 µM [falling, full curve]"
7,O/N=C1\CCCc2oc3c(c21)CCCC3,"12.6 µM [rising, partial curve]"
8,COc1ccc(C)cc1NC(=O)c1cc2ccccc2o1,"3.98 µM [falling, partial curve]"
9,O=C1OC(O)C(C(Cl)Cl)=C1Cl (stereo not drawn),"1 µM [falling, full curve, poor fit]"
10,COc1ccc(NC(=O)CSc2nnc(-c3ccccc3C)n2N)cc1,"6.31 µM [falling, partial curve, poor fit]"
11,COCC(=O)NCCc1ccc(S(N)(=O)=O)cc1,"0.501 µM [rising, single point]"
12,Cc1ccc(C(=O)OCc2cc3ccccc3[nH]c2=O)cc1,"10 µM [falling, partial curve]"
13,O=C(Cn1nnc(-c2ccccc2NC(=O)c2cccs2)n1)Nc1ccccc1,"10 µM [rising, single point]"
14,CCOC(=O)N1CCN(c2ccc(Cl)c(Cl)c2)CC1,"20 µM [falling, single point]"
15,CCc1c(C)nc2ncnn2c1N1CCC(C(=O)NCc2cccc(OC)c2)CC1,"15.8 µM [rising, single point]"
16,Cc1ccc(-c2nnc3n2N=C(c2ccc(Br)cc2)CS3)cc1,"12.6 µM [rising, partial curve]"
17,CCS(=O)(=O)N1CCCC(C(=O)NCc2ccc3c(c2)OCO3)C1 (stereo not drawn),"5.01 µM [rising, single point]"
18,O=c1c(O)c(-c2ccc(O)c(O)c2)oc2cc(O)cc(O)c12,"20 µM [falling, partial curve] and 15.8 µM [falling, partial curve, poor fit]"
19,COC(=O)Cc1cc(=O)n(-c2nc3ccccc3s2)[nH]1,"15.8 µM [falling, partial curve]"
20,CCn1c(=O)cc(OCC(=O)Nc2ccccc2C#N)c2ccccc21,"5.01 µM [rising, partial curve]"
21,CC(=O)c1cccc(NC(=O)CN(c2ccc(F)cc2)S(C)(=O)=O)c1,"15.8 µM [rising, partial curve]"
22,CCOC(=O)CCc1c(C)nc2ncnn2c1C,"0.398 µM [falling, single point]"
23,CCC(C)C(NC(=O)C1CCC(C)CC1)C(=O)NCc1cccnc1 (stereo not drawn),"0.2 µM [falling, full curve, poor fit]"

row,SMILES,AC50
1,Cn1c(=O)c2c(n(C)c1=O)=NC1(CCCCC1)N=2,"2.51 µM [falling, full curve, poor fit]"
2,CCOC(=O)c1ccccc1NC(=O)CSc1nc2ccccc2o1,"15.8 µM [rising, single point]"
3,CN(C)c1ccc(-c2ccc3ncnc(NCc4ccccc4)c3c2)cc1,"3.16 µM [rising, single point]"
4,COc1ccc(CN2CCN(c3ncccn3)CC2)c(OC)c1,"0.251 µM [rising, full curve, poor fit]"
5,CSCCC(NS(=O)(=O)c1ccc(Cl)cc1)C(=O)OCC(=O)N1CCOCC1 (stereo not drawn),"5.01 µM [falling, single point]"
6,O=C(Nc1nc(-c2cccs2)cs1)c1ccc(Cl)s1,"25.1 µM [falling, single point]"
7,Cc1cccc(N(C)c2cc(C)nc3nc(C)nn23)c1,"10 µM [rising, partial curve]"
8,Cc1c(C)n(Cc2ccccc2)c2ncnc(N)c12,"2.51 µM [falling, partial curve]"
9,CC(=O)NCCNc1ncnc2ccc(-c3ccccc3Cl)cc12,"10 µM [rising, partial curve]"
10,CCOc1ccc(OCC)c(NC(=O)c2ccc(CNc3c(N4CCOCC4)c(=O)c3=O)cc2)c1,"6.31 µM [rising, partial curve]"
11,COC(=O)CCC(=O)Nc1sc2c(c1C#N)CCCC2,"25.1 µM [rising, single point]"
12,COc1ccc(NC(=O)C2CCCN2c2ccc(OC)c(OC)c2)cc1OC (stereo not drawn),"5.01 µM [rising, partial curve]"
13,CCNc1ncc2nc(-c3cccs3)c(=O)n(-c3ccccc3)c2n1,"2 µM [rising, full curve]"
14,CSc1ccc(C2C(C#N)=C(N)Oc3cc4c(cc32)OCO4)cc1 (stereo not drawn),"12.6 µM [rising, single point]"
15,O=C(CCCn1c(=O)c2ccccc2n(Cc2ccccc2)c1=O)NCc1ccco1,"25.1 µM [rising, single point]"
16,COc1ccccc1CNC(=O)CNC(=O)Cn1cnc2ccccc2c1=O,"0.501 µM [falling, full curve]"
17,COc1cc(C(c2sc3nc(C)nn3c2O)N2CC(C)OC(C)C2)cc(OC)c1OC (stereo not drawn),"10 µM [rising, partial curve]"
18,N#Cc1nc(-c2ccco2)oc1N1CCCC1,"10 µM [rising, partial curve]"
19,C/C=C/Cn1c(N(C)Cc2ccccc2)nc2c1c(=O)[nH]c(=O)n2C,"6.31 µM [rising, partial curve]"
20,COc1ccc(-n2c(=O)c3c4c(sc3n(CC(=O)NCc3ccco3)c2=O)CCC4)c(OC)c1,"0.794 µM [rising, full curve]"
21,COc1ccc(OC)c(NC=C2C(=O)OC(C)(C)OC2=O)c1,"25.1 µM [rising, single point]"
22,CCOC(=O)c1c(NC(=O)CN2CCCCC2)sc2c1CCCC2O (stereo not drawn),"7.94 µM [rising, partial curve]"
